This is an account of results in publication doi:10.1101/365460.

Chains of the proteins cited; added tags and fusions are not shown.
UniProt Q9UI95: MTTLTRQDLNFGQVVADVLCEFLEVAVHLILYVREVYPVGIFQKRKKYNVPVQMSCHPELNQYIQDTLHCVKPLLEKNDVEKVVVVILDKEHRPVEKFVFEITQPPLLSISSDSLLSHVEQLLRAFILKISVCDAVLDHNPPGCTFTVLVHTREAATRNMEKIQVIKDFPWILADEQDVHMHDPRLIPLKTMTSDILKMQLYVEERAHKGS
UniProt Q7L5N1: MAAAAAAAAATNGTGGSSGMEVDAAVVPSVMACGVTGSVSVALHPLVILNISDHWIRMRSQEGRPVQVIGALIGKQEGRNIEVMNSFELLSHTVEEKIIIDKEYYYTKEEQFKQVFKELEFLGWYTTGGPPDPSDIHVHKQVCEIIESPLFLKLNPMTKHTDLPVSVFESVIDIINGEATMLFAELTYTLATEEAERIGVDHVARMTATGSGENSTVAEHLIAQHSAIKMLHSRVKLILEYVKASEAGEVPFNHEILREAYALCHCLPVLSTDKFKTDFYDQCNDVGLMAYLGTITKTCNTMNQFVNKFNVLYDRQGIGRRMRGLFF
UniProt Q13620: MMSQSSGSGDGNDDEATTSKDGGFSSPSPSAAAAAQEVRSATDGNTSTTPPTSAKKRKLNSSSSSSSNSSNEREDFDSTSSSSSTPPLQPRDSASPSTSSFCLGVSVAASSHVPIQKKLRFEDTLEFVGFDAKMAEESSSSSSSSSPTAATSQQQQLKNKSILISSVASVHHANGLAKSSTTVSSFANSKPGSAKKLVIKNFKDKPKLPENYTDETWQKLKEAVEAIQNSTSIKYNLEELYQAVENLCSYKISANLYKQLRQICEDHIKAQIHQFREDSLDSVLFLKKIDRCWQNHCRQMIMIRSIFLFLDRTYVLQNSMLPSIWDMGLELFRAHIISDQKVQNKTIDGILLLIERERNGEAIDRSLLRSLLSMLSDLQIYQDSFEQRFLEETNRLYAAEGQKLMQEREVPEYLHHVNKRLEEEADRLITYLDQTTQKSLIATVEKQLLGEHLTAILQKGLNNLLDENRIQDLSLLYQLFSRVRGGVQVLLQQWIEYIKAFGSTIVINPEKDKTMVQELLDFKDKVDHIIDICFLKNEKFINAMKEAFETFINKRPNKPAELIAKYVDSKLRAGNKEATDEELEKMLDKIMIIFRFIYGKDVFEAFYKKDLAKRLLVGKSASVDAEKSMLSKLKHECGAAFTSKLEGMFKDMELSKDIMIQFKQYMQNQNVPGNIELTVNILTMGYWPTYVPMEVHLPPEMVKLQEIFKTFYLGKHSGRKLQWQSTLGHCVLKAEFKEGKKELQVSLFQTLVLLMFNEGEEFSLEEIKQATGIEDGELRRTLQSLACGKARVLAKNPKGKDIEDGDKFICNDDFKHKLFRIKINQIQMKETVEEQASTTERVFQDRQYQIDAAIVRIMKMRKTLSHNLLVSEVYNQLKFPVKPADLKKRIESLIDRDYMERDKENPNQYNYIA
UniProt Q16531: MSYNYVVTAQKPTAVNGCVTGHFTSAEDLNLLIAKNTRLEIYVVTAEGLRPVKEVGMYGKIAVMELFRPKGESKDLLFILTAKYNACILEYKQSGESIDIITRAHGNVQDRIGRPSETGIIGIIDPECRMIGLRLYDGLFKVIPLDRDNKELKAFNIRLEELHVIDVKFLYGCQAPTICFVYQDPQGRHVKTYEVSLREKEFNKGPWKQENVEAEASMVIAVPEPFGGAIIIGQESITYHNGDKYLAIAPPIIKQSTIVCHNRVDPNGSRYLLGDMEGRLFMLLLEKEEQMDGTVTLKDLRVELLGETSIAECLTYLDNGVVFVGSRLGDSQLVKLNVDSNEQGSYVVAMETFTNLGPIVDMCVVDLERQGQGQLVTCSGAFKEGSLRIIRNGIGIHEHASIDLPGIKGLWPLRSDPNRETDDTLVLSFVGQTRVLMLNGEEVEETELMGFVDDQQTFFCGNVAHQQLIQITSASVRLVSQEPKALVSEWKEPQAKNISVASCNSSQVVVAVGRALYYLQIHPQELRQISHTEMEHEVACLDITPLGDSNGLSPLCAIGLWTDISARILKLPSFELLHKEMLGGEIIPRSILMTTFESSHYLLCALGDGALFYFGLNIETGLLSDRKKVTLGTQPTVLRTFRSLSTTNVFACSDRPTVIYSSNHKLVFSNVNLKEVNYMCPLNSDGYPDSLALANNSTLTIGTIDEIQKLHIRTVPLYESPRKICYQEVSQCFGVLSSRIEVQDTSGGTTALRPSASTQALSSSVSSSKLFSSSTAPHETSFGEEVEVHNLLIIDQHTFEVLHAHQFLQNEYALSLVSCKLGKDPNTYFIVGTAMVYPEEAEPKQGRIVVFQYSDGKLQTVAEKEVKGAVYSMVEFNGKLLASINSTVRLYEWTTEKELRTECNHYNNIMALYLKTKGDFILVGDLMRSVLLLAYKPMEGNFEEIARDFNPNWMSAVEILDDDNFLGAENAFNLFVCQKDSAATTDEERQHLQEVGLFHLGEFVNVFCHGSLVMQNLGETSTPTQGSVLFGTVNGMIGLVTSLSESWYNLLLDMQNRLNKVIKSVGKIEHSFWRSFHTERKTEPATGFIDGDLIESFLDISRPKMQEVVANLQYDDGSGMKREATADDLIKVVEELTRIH
UniProt Q14258: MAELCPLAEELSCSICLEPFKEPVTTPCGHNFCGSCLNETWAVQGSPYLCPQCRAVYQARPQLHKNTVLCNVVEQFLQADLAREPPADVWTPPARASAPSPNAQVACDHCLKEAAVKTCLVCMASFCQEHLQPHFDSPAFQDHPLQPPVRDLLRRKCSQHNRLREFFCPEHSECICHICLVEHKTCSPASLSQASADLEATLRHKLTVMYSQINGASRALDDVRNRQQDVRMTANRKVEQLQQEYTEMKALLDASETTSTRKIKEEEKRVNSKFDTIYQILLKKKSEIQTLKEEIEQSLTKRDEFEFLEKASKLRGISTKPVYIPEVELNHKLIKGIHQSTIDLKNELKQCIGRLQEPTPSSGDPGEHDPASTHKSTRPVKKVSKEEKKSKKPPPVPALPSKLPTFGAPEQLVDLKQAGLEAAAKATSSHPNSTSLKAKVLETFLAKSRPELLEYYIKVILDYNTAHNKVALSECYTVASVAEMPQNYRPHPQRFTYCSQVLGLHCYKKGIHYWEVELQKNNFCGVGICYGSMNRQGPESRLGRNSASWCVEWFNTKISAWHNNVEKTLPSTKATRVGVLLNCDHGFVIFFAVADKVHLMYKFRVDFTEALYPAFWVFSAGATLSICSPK

Assay [1] concerns the target T1, FLAG-BirA*-FAM35A (human) (UniProt Q86V20).
T1 sequence: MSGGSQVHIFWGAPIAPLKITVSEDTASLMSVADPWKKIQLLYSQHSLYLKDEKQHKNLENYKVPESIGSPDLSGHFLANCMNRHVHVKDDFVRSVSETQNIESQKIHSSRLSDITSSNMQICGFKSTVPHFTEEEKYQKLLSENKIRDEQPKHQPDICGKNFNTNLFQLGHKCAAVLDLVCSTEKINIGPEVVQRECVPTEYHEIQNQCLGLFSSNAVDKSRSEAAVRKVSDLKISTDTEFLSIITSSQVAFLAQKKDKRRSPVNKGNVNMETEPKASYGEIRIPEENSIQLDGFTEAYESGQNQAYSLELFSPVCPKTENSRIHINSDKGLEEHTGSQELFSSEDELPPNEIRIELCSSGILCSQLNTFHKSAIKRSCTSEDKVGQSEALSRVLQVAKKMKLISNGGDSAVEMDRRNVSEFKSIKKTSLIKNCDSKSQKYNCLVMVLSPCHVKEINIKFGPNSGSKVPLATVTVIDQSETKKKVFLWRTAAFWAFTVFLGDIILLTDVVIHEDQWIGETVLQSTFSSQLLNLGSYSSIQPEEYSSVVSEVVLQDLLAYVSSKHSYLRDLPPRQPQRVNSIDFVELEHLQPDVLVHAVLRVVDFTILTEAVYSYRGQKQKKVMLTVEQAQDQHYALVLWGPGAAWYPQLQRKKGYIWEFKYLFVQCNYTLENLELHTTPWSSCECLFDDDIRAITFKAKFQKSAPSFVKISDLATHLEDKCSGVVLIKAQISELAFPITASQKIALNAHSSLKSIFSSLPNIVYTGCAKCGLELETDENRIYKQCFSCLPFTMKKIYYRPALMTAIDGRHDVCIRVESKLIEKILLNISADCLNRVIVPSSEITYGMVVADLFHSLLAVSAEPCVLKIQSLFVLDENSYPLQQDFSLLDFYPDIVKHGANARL
Nature of the assay: proximity labelling.

Another assay concerns the target FLAG-BirA*-REV7 (human) (UniProt Q9UI95). The assay can be described thus: proximity labelling.
For a further assay, the target named is Flag-REV7 (human) (UniProt Q9UI95). Nature of the assay: affinity purification with mass spectrometry.

No constants are given. Whether binding was seen depends on the method and setting. In cells and extracts the contact can be indirect. Here binding means that the protein was enriched with, or labelled near, the bait; the list need not be complete. For some of these results: Where a sequence is shown, tags or fusion partners need not be part of it.

Consider COPS4 (from UniProt Q9BT78 1-406), for which the binding entry in assay [1] is “binds”.

Consider COPS6 (from UniProt Q7L5N1 1-327), for which, in assay [1], the binding result is recorded as “binds”.

Consider CUL4B (from UniProt Q13620 1-913), for which the binding entry in assay [1] is given as “binds”.

With DDB1 (from UniProt Q16531 1-1140), the binding entry in assay [1] is on record as “binds”.

“E3 Ubiquitin ligase TRIM25 (from UniProt Q14258 1-630)”: in assay [1], the binding entry is recorded as “binds”.

Take REV7 (from UniProt Q9UI95 1-211): the binding entry in assay [1] was “binds”.

B1: FAM35A (protein, UniProt Q86V20-2 1-904)
chain: T1 sequence
Regarding B1, the binding result with FLAG-BirA*-REV7 (human) and in the assay with Flag-REV7 (human) was “binds” in each case.

B2: chromosome alignment-maintaining phosphoprotein (CHAMP1) (protein, UniProt Q96JM3 1-812)
chain: MEAFQELRKPSARLECDHCSFRGTDYENVQIHMGTIHPEFCDEMDAGGLGKMIFYQKSAKLFHCHKCFFTSKMYSNVYYHITSKHASPDKWNDKPKNQLNKETDPVKSPPLPEHQKIPCNSAEPKSIPALSMETQKLGSVLSPESPKPTPLTPLEPQKPGSVVSPELQTPLPSPEPSKPASVSSPEPPKSVPVCESQKLAPVPSPEPQKPAPVSPESVKATLSNPKPQKQSHFPETLGPPSASSPESPVLAASPEPWGPSPAASPESRKSARTTSPEPRKPSPSESPEPWKPFPAVSPEPRRPAPAVSPGSWKPGPPGSPRPWKSNPSASSGPWKPAKPAPSVSPGPWKPIPSVSPGPWKPTPSVSSASWKSSSVSPSSWKSPPASPESWKSGPPELRKTAPTLSPEHWKAVPPVSPELRKPGPPLSPEIRSPAGSPELRKPSGSPDLWKLSPDQRKTSPASLDFPESQKSSRGGSPDLWKSSFFIEPQKPVFPETRKPGPSGPSESPKAASDIWKPVLSIDTEPRKPALFPEPAKTAPPASPEARKRALFPEPRKHALFPELPKSALFSESQKAVELGDELQIDAIDDQKCDILVQEELLASPKKLLEDTLFPSSKKLKKDNQESSDAELSSSEYIKTDLDAMDIKGQESSSDQEQVDVESIDFSKENKMDMTSPEQSRNVLQFTEEKEAFISEEEIAKYMKRGKGKYYCKICCCRAMKKGAVLHHLVNKHNVHSPYKCTICGKAFLLESLLKNHVAAHGQSLLKCPRCNFESNFPRGFKKHLTHCQSRHNEEANKKLMEALEPPLEEQQI
Consider B2, for which the binding entry in the assay with FLAG-BirA*-REV7 (human) and in the assay with Flag-REV7 (human) was “binds” each time.
